These are yes or no findings as the source states them, for the method shown. Some binding calls cover weakened binding; strength is not graded here.
Target: wild-type TF55 beta subunit from Sulfolobus shibatae (Sulfolobus shibatae) (UniProt P28488)
Experiment: non-denaturing gradient PAGE (FIG. 18); wild-type comparator, self-assembly of subunits

The chains behind the UniProt entries cited, without tags or fusion partners. Where a name states a change or a piece, a line headed by the entry shows the natural chain unless it says otherwise.
UniProt P28488: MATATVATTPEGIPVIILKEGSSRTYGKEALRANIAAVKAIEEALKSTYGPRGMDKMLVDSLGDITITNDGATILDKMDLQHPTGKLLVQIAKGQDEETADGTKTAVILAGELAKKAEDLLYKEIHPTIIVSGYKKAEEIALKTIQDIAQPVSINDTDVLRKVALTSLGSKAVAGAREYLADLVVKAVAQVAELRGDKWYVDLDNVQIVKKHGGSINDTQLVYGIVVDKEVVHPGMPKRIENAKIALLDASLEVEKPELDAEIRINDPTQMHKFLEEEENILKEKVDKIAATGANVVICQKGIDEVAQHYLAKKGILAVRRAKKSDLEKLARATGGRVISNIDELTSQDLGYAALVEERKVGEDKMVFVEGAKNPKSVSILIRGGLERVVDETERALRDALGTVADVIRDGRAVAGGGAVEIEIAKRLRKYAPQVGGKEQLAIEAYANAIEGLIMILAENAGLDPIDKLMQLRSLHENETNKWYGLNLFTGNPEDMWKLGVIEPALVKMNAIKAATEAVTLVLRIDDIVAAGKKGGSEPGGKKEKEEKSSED

- binding: binds
Substance: wild-type TF55 beta subunit from Sulfolobus shibatae (from UniProt P28488 1-552)

Source: US20060084792A1 (UNITED STATES OF AMERICA AS REPRESENTED BY THE …, published 2006)
